From the supplement of paper PMC8007513
This is one part of the list. Most values come without repeats; read them as rough.

test system: Saccharomyces cerevisiae BY4743; test: growth (OD600) relative to untreated control; higher = less growth inhibition; conditions: compound concentration: 133 uM; 20 h
Procedure: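 NMCCC compounds (133 uM, no IPBC) tested alone against Saccharomyces cerevisiae BY4743 in YPD, 96-well plates, starting OD600 ~0.1. Growth was read as OD600 at 20 h and expressed as % of the untreated control. Single pass.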

Q: Which growth does the source give for CCC1CCCCN1C(=O)C(C)OC(=O)c1ccc(-n2cccn2)cc1 (configuration not stated) here?
A: 99.7%

Q: For CCc1sc(C(=O)N(C)Cc2ccc3c(c2)OCO3)cc1C, which growth is on record?
A: 98.5%

Q: With CC(C)(C)C(O)CN\1C2=CC=CC=C2N3CC/N=C13 (configuration not stated) as the molecule, how does the growth read?
A: 68%

Q: How did the growth turn out when CC(NC(=O)CN1CCN(Cc2ccc(Br)s2)CC1)c1ccc(F)cc1 (configuration not stated) was run?
A: 96.5%

Q: With Cc1nc(SCC(=O)NC(C)CCc2ccccc2)c2ccccc2n1 (configuration not stated) as the molecule, how does the growth read?
A: 96.5%

Q: How did the growth turn out when Cc1cc(C)nc(SCc2nnc(SCC(N)=O)n2-c2ccc(Cl)cc2)n1 was run?
A: 98.9%

Q: CC(=O)c1csc(NC(=O)CCc2ccsc2)n1 was tested. Which growth did it give?
A: 102%

Q: With CCc1ccc(OC(C)C(=O)Nc2ccc3nsnc3c2)cc1 (configuration not stated) as the molecule, how does the growth read?
A: 102%

Q: For COc1cccc(C2/C(=C(\O)OC(C)(C)C)C(C)=Nc3nnnn32)c1 (configuration not stated), which growth is on record?
A: 107%

Q: Which growth does the source give for CC(=O)c1ccc(S(=O)(=O)N(C)CC(=O)Nc2ncccc2C)cc1 here?
A: 99.8%

Q: With CC1=C(Cl)C=CC=C1NC(=O)C\C2=N\[S](=O)(=O)C3=CC=CC=C3N2 as the molecule, how does the growth read?
A: 106%

Q: With CCOc1ccc(N2C(=O)CCS2(=O)=O)cc1S(=O)(=O)N(Cc1ccccc1)C(C)C as the molecule, how does the growth read?
A: 83.4%

Q: Which growth does the source give for COc1nccc(N(C)C)c1NC(=O)c1cnn(-c2ccccc2)n1 here?
A: 96%

Q: How did the growth turn out when COc1ccc(-n2ccnc2SCC(=O)NCC2CN(CC(C)C)CCO2)cc1 (configuration not stated) was run?
A: 103%

Q: CCCCN1\C=N/[S](=O)(=O)C2=CC=C(C=C12)C(F)(F)F was tested. Which growth did it give?
A: 106%

Q: CCCc1ccc(C(O)CSc2nnc(O)n2C2CC2)cc1 (configuration not stated) was tested. Which growth did it give?
A: 111%

Q: How did the growth turn out when CCSc1ccccc1C(=O)Nc1ccc(S(=O)(=O)NCC(F)(F)F)cc1 was run?
A: 95.4%
